No constants are given. Whether binding was seen depends on the method and setting. Binding seen in cells or lysates may run through a third protein. Some binding calls cover weakened binding; strength is not graded here.
Biological target: T1, art5^K364R (S. cerevisiae) (UniProt P53244)
T1 sequence: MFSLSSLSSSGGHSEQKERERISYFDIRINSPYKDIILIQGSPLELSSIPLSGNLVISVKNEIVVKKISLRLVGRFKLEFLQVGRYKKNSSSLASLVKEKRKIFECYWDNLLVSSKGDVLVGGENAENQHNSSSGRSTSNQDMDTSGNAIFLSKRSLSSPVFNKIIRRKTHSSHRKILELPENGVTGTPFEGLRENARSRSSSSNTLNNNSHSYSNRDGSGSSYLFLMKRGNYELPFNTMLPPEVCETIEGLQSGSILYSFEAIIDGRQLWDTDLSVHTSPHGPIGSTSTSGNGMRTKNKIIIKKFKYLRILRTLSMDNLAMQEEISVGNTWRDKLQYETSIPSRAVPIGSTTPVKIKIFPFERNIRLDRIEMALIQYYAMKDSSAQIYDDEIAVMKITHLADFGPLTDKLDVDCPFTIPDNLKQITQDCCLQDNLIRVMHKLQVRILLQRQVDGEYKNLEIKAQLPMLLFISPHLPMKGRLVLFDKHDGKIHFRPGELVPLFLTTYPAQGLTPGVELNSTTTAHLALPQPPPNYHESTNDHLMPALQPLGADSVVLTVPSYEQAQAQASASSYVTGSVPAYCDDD
Assay: co-IP; yeast lysate in IP buffer with 1% Triton X-100; ART protein bound to FLAG-M2 affinity gel 4 hr at 4°C; blot for Rsp5

By UniProt entry, the sequences of proteins in these tests, tags left out.
UniProt P39940: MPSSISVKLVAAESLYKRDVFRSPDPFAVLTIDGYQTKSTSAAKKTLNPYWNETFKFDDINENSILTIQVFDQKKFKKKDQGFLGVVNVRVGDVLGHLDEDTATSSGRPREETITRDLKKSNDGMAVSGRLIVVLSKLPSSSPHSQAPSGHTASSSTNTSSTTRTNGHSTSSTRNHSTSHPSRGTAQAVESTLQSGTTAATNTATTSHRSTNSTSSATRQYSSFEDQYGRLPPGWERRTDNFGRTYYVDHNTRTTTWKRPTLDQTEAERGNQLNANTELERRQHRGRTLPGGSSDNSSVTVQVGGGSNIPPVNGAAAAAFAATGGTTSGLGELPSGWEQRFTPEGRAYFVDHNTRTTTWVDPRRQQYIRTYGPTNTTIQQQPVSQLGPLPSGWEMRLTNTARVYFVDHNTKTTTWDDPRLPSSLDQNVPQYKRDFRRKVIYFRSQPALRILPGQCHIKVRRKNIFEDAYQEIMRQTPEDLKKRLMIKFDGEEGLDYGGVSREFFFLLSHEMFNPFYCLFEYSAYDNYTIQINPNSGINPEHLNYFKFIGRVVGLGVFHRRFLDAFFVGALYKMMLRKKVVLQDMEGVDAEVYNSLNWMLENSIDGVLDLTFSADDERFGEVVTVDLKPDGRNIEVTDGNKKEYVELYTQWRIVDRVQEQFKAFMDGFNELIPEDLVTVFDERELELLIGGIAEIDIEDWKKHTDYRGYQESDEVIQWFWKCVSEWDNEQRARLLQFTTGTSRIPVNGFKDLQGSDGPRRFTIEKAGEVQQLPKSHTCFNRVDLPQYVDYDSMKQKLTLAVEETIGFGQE

## Rsp5 (from UniProt P39940 1-809) (enzyme)
  binding: binds
